Source: PubChem BioAssay AID1259254 (NCATS, 2017)
Purpose: 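Genome-wide screen for genes that prevent DNA re-replication in cancer cells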 (primary screen). Cells: human HCT116 colorectal cancer cells. Reagent: single siRNA against human genes. Time to read-out: 3 days. Measured: 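Imaged Hoechst DNA stain sorts each cell into a cycle phase by DNA amount; per plate, G2 fraction set to 0% for non-targeting and 100% for GMNN siRNA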. Reading the numbers: G2 robust z-score and G2 cells, % of GMNN control: higher = more G2 cells, more excess DNA replication; raw share of cells in G2: higher = larger share of cells with G2 DNA content. Hit rule: 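Active siRNAs have a G2 robust z of 5 or more median absolute deviations over the median, which in these data means about 38% or higher of GMNN control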.
The deposit covers about 59,000 reagents; below is a part drawn at random. Of all reagents, about 1,550 (2.6%) got an active call. 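G2 share is only a proxy for re-replication; each gene was hit by three separate siRNAs, and active genes were retested.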 The raw values are shown without normalisation. Reagents against one gene are numbered here. Not stated in the record: the amount of reagent.

gene | siRNA no. | G2 robust z-score | G2 cells, % of GMNN control | raw share of cells in G2 (%) | outcome
HSPG2 | 1 | 0.068 | 3.45 | 4.83 | inactive
HSPG2 | 2 | -0.246 | 1.24 | 5.43 | inactive
HSPG2 | 3 | -0.585 | -1.15 | 2.69 | inactive
PPIE | 1 | 0.169 | 4.15 | 7.5 | inactive
PPIE | 2 | -0.29 | 0.926 | 4.14 | inactive
PPIE | 3 | 0.0108 | 3.04 | 7.68 | inactive
INSL3 | 1 | -1.37 | -6.68 | 1.75 | inactive
INSL3 | 2 | 1.38 | 12.7 | 9.64 | inactive
INSL3 | 3 | 5.26 | 40 | 20.9 | active
FNDC11 | 1 | 0.355 | 5.47 | 6.96 | inactive
FNDC11 | 2 | -1.14 | -5.08 | 2.33 | inactive
FNDC11 | 3 | -0.351 | 0.499 | 2.83 | inactive
CA14 | 1 | 2.21 | 18.5 | 14.6 | inactive
CA14 | 2 | 0.688 | 7.81 | 6.78 | inactive
CA14 | 3 | 0.24 | 4.66 | 5.51 | inactive
UBXN4 | 1 | -0.701 | -1.96 | 4.21 | inactive
UBXN4 | 2 | -0.597 | -1.24 | 3.63 | inactive
UBXN4 | 3 | 0.619 | 7.32 | 5.91 | inactive
HLA-DRB7 | 1 | -0.485 | -0.448 | 3.5 | inactive
HLA-DRB7 | 2 | 2.79 | 22.6 | 12.8 | inactive
HLA-DRB7 | 3 | 4.78 | 36.6 | 17.2 | inactive
CACNA1C | 1 | 3.24 | 25.8 | 14.7 | inactive
CACNA1C | 2 | 0.499 | 6.48 | 6.97 | inactive
CACNA1C | 3 | 0.796 | 8.57 | 7.72 | inactive
AMPD1 | 1 | -0.912 | -3.45 | 2.71 | inactive
AMPD1 | 2 | 1.06 | 10.4 | 8.26 | inactive
AMPD1 | 3 | 6.76 | 50.6 | 23.1 | active
AFAP1 | 1 | -0.425 | -0.0231 | 4.57 | inactive
AFAP1 | 2 | -0.23 | 1.35 | 5.21 | inactive
AFAP1 | 3 | 0.302 | 5.09 | 4.04 | inactive

The list goes on, starting with the last 3 of the part before.
gene | siRNA no. | G2 robust z-score | G2 cells, % of GMNN control | raw share of cells in G2 (%) | outcome
AFAP1 | 1 | -0.425 | -0.0231 | 4.57 | inactive
AFAP1 | 2 | -0.23 | 1.35 | 5.21 | inactive
AFAP1 | 3 | 0.302 | 5.09 | 4.04 | inactive
DDX3Y | 1 | 0.129 | 3.87 | 6.09 | inactive
DDX3Y | 2 | -1.32 | -6.32 | 3.04 | inactive
DDX3Y | 3 | 0.307 | 5.13 | 6.87 | inactive
PDCD7 | 1 | 0.34 | 5.36 | 7.75 | inactive
PDCD7 | 2 | 1.19 | 11.4 | 8.69 | inactive
PDCD7 | 3 | -0.18 | 1.7 | 4.02 | inactive
RNF34 | 1 | -1.07 | -4.56 | 2.54 | inactive
RNF34 | 2 | -0.658 | -1.66 | 4.17 | inactive
RNF34 | 3 | -0.722 | -2.11 | 4.55 | inactive
DTX1 | 1 | -0.743 | -2.26 | 2.56 | inactive
DTX1 | 2 | 0.192 | 4.32 | 6.87 | inactive
DTX1 | 3 | -0.358 | 0.451 | 3.27 | inactive
NOSTRIN | 1 | 3.33 | 26.4 | 14.7 | inactive
NOSTRIN | 2 | -0.618 | -1.38 | 2.92 | inactive
NOSTRIN | 3 | 0.864 | 9.05 | 4.46 | inactive
DYRK1B | 1 | 1.02 | 10.1 | 8.73 | inactive
DYRK1B | 2 | -1.08 | -4.64 | 3.5 | inactive
DYRK1B | 3 | -0.356 | 0.462 | 3.83 | inactive
USP8P1 | 1 | -0.403 | 0.132 | 4.32 | inactive
USP8P1 | 2 | 0.662 | 7.63 | 5.95 | inactive
USP8P1 | 3 | 1.25 | 11.7 | 7.78 | inactive
PTGER1 | 1 | 1.08 | 10.6 | 8.61 | inactive
PTGER1 | 2 | 2.51 | 20.6 | 12.6 | inactive
PTGER1 | 3 | 0.304 | 5.11 | 5.84 | inactive
RASD2 | 1 | 0.495 | 6.45 | 6.07 | inactive
RASD2 | 2 | -0.359 | 0.443 | 6.55 | inactive
RASD2 | 3 | -0.813 | -2.75 | 3.23 | inactive
LONP2 | 1 | -0.0609 | 2.54 | 6.67 | inactive
LONP2 | 2 | 1.26 | 11.8 | 8.38 | inactive
LONP2 | 3 | -0.554 | -0.93 | 3.92 | inactive
PLA2G2C | 1 | -0.443 | -0.149 | 3.76 | inactive
PLA2G2C | 2 | 5.36 | 40.7 | 19.7 | active
PLA2G2C | 3 | -0.633 | -1.48 | 4.18 | inactive
DIO1 | 1 | 0.518 | 6.61 | 7.32 | inactive
DIO1 | 2 | -1.44 | -7.16 | 2.38 | inactive
DIO1 | 3 | -0.277 | 1.02 | 4.45 | inactive
VPS4A | 1 | -0.374 | 0.334 | 6.31 | inactive
VPS4A | 2 | -0.975 | -3.89 | 2.72 | inactive
VPS4A | 3 | -0.554 | -0.927 | 3.88 | inactive
